System: rabbit polyclonal antibody #11341
Test: Coadministered drug interference study in the homogeneous enzyme immunoassay (HITACHI 917)
Assay type: binding
Conditions: 5.0 μg/mL drug added to human serum containing 20.0 μg/mL topiramate
Protocol: The antibody was added into the antibody diluent to prepare the antibody reagent. The antibody reagent consists of antibody as prepared above, buffer, stabilizers, preservatives, and the substrates for the enzyme conjugate NAD and glucose 6 phosphate. […] The enzyme conjugate reagent consists of the conjugate, buffer, stabilizers and preservatives.
(§1) The ARK Assay for topiramate is conducted using a liquid, ready-to-use, two-reagent kit. […] Topiramate containing sample is incubated with antibody reagent followed by the addition of the enzyme conjugate reagent. The enzyme conjugate activity decreases upon binding to the antibody. The enzyme conjugate, which is not bound to the antibody, catalyzes the oxidation of glucose 6-phosphate (G6P). The oxidation of G6P is coupled with the reduction of NAD^+ to NADH, which can be measured at 340 nm. The change in the absorbance at 340 nm can be measured spectrophotometrically. The topiramate concentration in a specimen can be measured in terms of G6PDH activity. The increase in the rate at 340 nm is due to the formation of NADH and is proportional to the enzyme conjugate activity. […] The assay rate increases with increasing the concentration of drug in the sample.
A high concentration of each coadministered drug was spiked into normal human serum with containing topiramate 20 μg/mL and assayed. Each sample was assayed in duplicate. […] The percentage concentration above 20.0 μg/mL of topiramate was calculated for each coadministered drug tested.

Row | SMILES | Result (apparent topiramate concentration) [µg/mL]
1 | NC(N)=Nc1nc(CSCCC(N)=NS(N)(=O)=O)cs1 [Famotidine] | 19.99

Same assay, conditions: 10.0 μg/mL drug added to human serum containing 20.0 μg/mL topiramate

Row | SMILES | Result (apparent topiramate concentration) [µg/mL]
2 | NS(=O)(=O)c1cc(C(=O)O)c(NCc2ccco2)cc1Cl [Furosemide] | 20.01

Same assay, conditions: 50.0 μg/mL drug added to human serum containing 20.0 μg/mL topiramate

Row | SMILES | Result (apparent topiramate concentration) [µg/mL]
3 | O=C1CN=C(c2ccccc2Cl)c2cc([N+](=O)[O-])ccc2N1 [Clonazepam] | 20.44
4 | CC(C)Cc1ccc(C(C)C(=O)O)cc1 (stereo not drawn) [Ibuprofen] | 21.24
5 | CN1C(=O)CN=C(c2ccccc2)c2cc(Cl)ccc21 [Diazepam] | 20.41
6 | CC(=O)Nc1ccc(O)cc1 [Acetominophen] | 19.81
7 | CC(=O)Nc1nnc(S(N)(=O)=O)s1 [Acetazolamide] | 20.28
8 | O=C1NC(=O)C(c2ccccc2)(c2ccccc2)N1 [Phenytoin] | 20.16

Same assay, conditions: 100.0 μg/mL drug added to human serum containing 20.0 μg/mL topiramate

Row | SMILES | Result (apparent topiramate concentration) [µg/mL]
9 | CC(=O)Oc1ccccc1C(=O)O [Acetylsalicyclic Acid] | 20.25
10 | CCC1(c2ccccc2)C(=O)NCNC1=O [Primidone] | 18.17
11 | Cn1c(=O)c2c(ncn2C)n(C)c1=O [Caffeine] | 20.35
12 | NS(=O)(=O)c1cc(C2(O)NC(=O)c3ccccc32)ccc1Cl (stereo not drawn) [Chlorthalidone] | 20.16
13 | CCC1(c2ccccc2)C(=O)NC(=O)NC1=O [Phenobarbitol] | 21.08
14 | NC(=O)N1c2ccccc2C=Cc2ccccc21 [Carbamazepine] | 19.57
15 | NCC1(CC(=O)O)CCCCC1 [Gabapentin] | 19.51
16 | COCCc1ccc(OCC(O)CNC(C)C)cc1 (stereo not drawn) [Metoprolol] | 20.44
17 | COc1ccc(CCN(C)CCCC(C#N)(c2ccc(OC)c(OC)c2)C(C)C)cc1OC (stereo not drawn) [Verapamil] | 21.16
18 | Nc1nnc(-c2cccc(Cl)c2Cl)c(N)n1 [Lamotrogine] | 18.98

Same assay, conditions: 200.0 μg/mL drug added to human serum containing 20.0 μg/mL topiramate

Row | SMILES | Result (apparent topiramate concentration) [µg/mL]
19 | NS(=O)(=O)Cc1noc2ccccc12 [Zonisamide] | 20.16
20 | CCCC(CCC)C(=O)O [Valproic Acid] | 20.99

Same assay, conditions: 500.0 μg/mL drug added to human serum containing 20.0 μg/mL topiramate

Row | SMILES | Result (apparent topiramate concentration) [µg/mL]
21 | NC(=O)OCC(COC(N)=O)c1ccccc1 [Felbamate] | 21.09
22 | CCC1(C)CC(=O)NC1=O (stereo not drawn) [Ethosuxamide] | 19.57

Same assay, conditions: 750.0 μg/mL drug added to human serum containing 20.0 μg/mL topiramate

Row | SMILES | Result (apparent topiramate concentration) [µg/mL]
23 | CCCCNC(=O)NS(=O)(=O)c1ccc(C)cc1 [Tolbutamide] | 19.39
24 | O=C(O)c1ccccc1O [Salicylic Acid] | 19.57

Same assay, conditions: 2000.0 μg/mL drug added to human serum containing 20.0 μg/mL topiramate

Row | SMILES | Result (apparent topiramate concentration) [µg/mL]
25 | Nc1ccc(S(N)(=O)=O)cc1 [Sulfanilamide] | 18.77

System: antibody from rabbit #11341
Test: Crossreactivity to topiramate metabolites in the homogeneous enzyme immunoassay (HITACHI 917)
Assay type: binding
Conditions: metabolite 50.0 μg/mL, in the presence of 20 μg/mL topiramate; concentration with metabolite minus without
Protocol: % Crossreactivity=100×(“apparent concentration of measurand”/“concentration of crossreactant”)
as §1
The apparent topiramate concentration for the metabolite is the difference in concentration with metabolite minus the concentration without metabolite.

Row | SMILES | Apparent Topiramate [µg/mL]
26 | CC1(C)O[C@H]2[C@@H]3O[C@](C)(CO)O[C@@H]3CO[C@@]2(COS(N)(=O)=O)O1 [9-OH-Topiramate, 9-hydroxytopiramate] | 1.59
27 | CC1(C)O[C@H]2[C@@H]3O[C@@](C)(CO)O[C@@H]3CO[C@@]2(COS(N)(=O)=O)O1 [10-OH-Topiramate, 10-hydroxytopiramate] | 1.60
